# Data from patent US9316633B2, “Methods for identifying inhibitors of solute transporters” (The Regents of the University of California, priority 2006, dated 2016).
# At least one compound was matched to its structure with a doubt left.
# Target: T1, rat UT-A1 (Rattus norvegicus, UniProt Q62668)
# T1 construct: expressed in transfected cells
# T1 sequence (Q62668 1-929): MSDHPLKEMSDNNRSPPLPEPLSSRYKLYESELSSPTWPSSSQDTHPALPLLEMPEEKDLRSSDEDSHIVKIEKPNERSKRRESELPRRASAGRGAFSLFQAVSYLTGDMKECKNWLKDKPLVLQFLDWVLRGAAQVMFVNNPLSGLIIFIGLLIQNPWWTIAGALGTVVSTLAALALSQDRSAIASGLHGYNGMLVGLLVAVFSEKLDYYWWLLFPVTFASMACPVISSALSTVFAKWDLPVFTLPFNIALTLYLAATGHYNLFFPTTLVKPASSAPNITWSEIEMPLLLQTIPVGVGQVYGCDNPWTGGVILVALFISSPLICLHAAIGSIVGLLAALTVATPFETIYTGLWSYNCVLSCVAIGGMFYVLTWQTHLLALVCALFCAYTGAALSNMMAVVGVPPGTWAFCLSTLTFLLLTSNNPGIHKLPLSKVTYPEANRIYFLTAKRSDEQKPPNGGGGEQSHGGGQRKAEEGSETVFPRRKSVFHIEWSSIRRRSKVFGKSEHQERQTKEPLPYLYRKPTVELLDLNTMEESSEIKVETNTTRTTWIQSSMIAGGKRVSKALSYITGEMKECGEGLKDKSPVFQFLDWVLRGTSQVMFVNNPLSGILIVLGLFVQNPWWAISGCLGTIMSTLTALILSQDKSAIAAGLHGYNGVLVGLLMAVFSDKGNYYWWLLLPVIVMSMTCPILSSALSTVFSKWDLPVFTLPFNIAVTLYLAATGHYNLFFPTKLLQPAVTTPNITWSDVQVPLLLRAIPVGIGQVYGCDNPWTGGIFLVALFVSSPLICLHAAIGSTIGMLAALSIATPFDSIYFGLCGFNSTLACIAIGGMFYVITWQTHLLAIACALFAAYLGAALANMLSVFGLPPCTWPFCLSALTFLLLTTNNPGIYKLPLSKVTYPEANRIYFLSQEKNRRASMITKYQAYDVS
# Test: UT-A1-mediated urea flux across stably transfected MDCK cell layers
# Assay type: cell-based
# Conditions: 10 μM forskolin; 0.7 mM phloretin
# Description: Concentration-inhibition studies were performed to study the effect of the active mouse UT-B inhibitors on urea transport by UT-A. The amino acid sequences of UT-B and UT-A urea transporter isoforms share significant similarity. The cells used in these studies were MDCK cells that expressed rat UT-A1. MDCK-UT-A1-expressing cells were grown on collagen-coated porous filters until they were electrically tight, at which point 15 mM urea was introduced into buffer bathing the basolateral cell surface. […]
# UT-A1-facilitated urea flux in the basolateral-to-apical direction across unstimulated and forskolin-stimulated MDCK-UT-A1 cell layers was measured in response to a 15-mM urea gradient. […] Five μL samples of apical fluid were collected at specified times during incubation at 37° C., and urea concentration was determined using a commercial kit based on chromogenic urea complexation at 520-nm wavelength (Quantichrom™ Urea Assay Kit, BioAssay Systems, Hayward, Calif.). […] Aforsk, and Aphlor were averaged absorbance values (at 520 nm) for cultures treated with forskolin and forskolin+phloretin, respectively, and Atest were values from cultures treated with forskolin+ test compound.
structure (smiles),measurement,value
C=C[C@@]1(C)CC(=O)[C@]2(O)[C@@]3(C)[C@@H](O)CCC(C)(C)[C@@H]3[C@H](O)[C@H](OC(C)=O)[C@@]2(C)O1 [forskolin],effect on UT-A1-facilitated urea transport,strongly increased
